In US11987566B2, “Nerve damage preventing and nerve protecting compounds, preparation method thereof, pharmaceutical composition thereof, and their use” (GENHEALTH PHARMA CO., LTD., priority 2022, dated 2024):
“And” between values parts separate entries of the source, which are not always exact repeats. Equal values may be shown once. Some results were stated once for a whole list of compounds, not compound by compound. At least one read-out could not be matched to a standard name with certainty.

Tested on: transient focal Middle Cerebral Artery Occlusion/Reperfusion model (MCAO/R model)
Experiment: Neurobehavioral evaluation (Bederson classification) after MCAO/R
Conditions: Bederson Grade 0-4, SD rat, 50 mg/kg intraperitoneal, vehicle group 2.80

With COc1cc(CC=C(C)C)c(OC)c2c1OCO2 [Example 4] as the compound, how does the “Grade (neurobehavioral evaluation), time point of 24-hour after blood reperfusion” value read?
The value was < 2 and 1.80.
